# The whole screen tested about 330,000 compounds, of which about 610 (0.18%) were called active. The inconclusive results got no clear call from the source; some entries with a clear call stand among them for comparison. Calls come from the whole dose curve. Where the call is inconclusive, the potency comes from a doubtful curve fit.
# Test: qHTS of Yeast-based Assay for SARS-CoV PLP; note: nearly all actives have a fitted effect of over 55% in size
# Settings: S. cerevisiae expressing SARS-CoV PLpro; Potency: growth rescue; series mostly up to 32.9 µM
# Potency is the fitted concentration of half-maximal effect.
row,Compound,Potency
1,COc1ccc(C(=O)CSc2nnc(NC(=O)C3CC(=O)N(c4ccccc4)C3)s2)cc1 (stereo not given),"inconclusive: 4.47 µM [activator, single point]"
2,Cc1cccc(C)c1NC(=O)COC(=O)C1C2CC3OC(=O)C1C3C2 (stereo not given),active: 11.2 µM
3,Cc1ccc(-c2nnc(SCC(=O)N/N=C/c3c(C)nn(-c4ccccc4)c3C)n2-c2ccccc2)cc1,"inconclusive: 4.47 µM [activator, partial curve]"
4,O=C(Nc1cc(Cl)cc(Cl)c1)c1coc(=O)c(Br)c1,inactive
5,COc1ccc(NC(=O)CCCn2c(=O)c3sccc3n(Cc3ccccc3)c2=O)cc1,"inconclusive: 0.398 µM [activator, full curve, poor fit]"
6,O=C(/C=C/c1ccccc1)Nc1ccc(CN2CCOCC2)cc1,"inconclusive: 1.41 µM [activator, full curve, poor fit]"
7,C1=Nc2ccccc2CN1c1ccccc1,"inconclusive: 12.6 µM [activator, partial curve]"
8,COc1ccc(NC(=O)CCOc2ccccc2F)cc1S(=O)(=O)N1CCCCC1,inactive
9,Fc1cccc(-c2oncc2-c2nnnn2-c2ccc(Cl)cc2)c1,"inconclusive: 17.8 µM [activator, partial curve, poor fit]"
10,CC1CN(S(=O)(=O)c2cn(C)c(=O)n(C)c2=O)CC(C)O1 (stereo not given),"inconclusive: 15.8 µM [activator, single point]"
11,Cn1c(COc2ccccc2)nnc1SCc1nc2ccccc2[nH]1,"inconclusive: 17.8 µM [activator, single point]"
12,CCCC(=O)Nc1ccc(Oc2ccc(NC(=O)CCC)cc2)cc1,inactive
13,COc1ccc(N2CCN(C(=S)Nc3cccc(C)c3C)CC2)cc1,"inconclusive: 12.6 µM [activator, single point]"
14,Cc1ccc(SCC(=O)c2sc(-c3ccccc3)nc2C)cc1,active: 3.55 µM
15,O=C(NNC(=S)Nc1ccccc1)C1CCCCC1,inactive
16,CC(C)NC(=S)N/N=C/c1cc(Br)ccc1O,"inconclusive: 20 µM [activator, single point]"
17,CCN(CC)CCCNC(=O)/C(=C\c1cccn1C)NC(=O)c1cccs1,"inconclusive: 2 µM [activator, single point]"
18,Cc1ccc(/C=C/C(=O)Nc2ccc(N(C)C)cc2)o1,inactive
19,Cc1ccc(N2CC(C(=O)OCC(=O)Nc3ccccc3C)CC2=O)cc1 (stereo not given),"inconclusive: 4.47 µM [activator, single point]"
20,CN1CCCN(C(=O)CNC(=O)c2ccccc2F)CC1,"inconclusive: 17.8 µM [activator, single point]"

# 3 entries out of the list, ordered by number of heavy atoms, high to low.
row,Compound,Potency
17,CCN(CC)CCCNC(=O)/C(=C\c1cccn1C)NC(=O)c1cccs1,"inconclusive: 2 µM [activator, single point]"
2,Cc1cccc(C)c1NC(=O)COC(=O)C1C2CC3OC(=O)C1C3C2 (stereo not given),active: 11.2 µM
10,CC1CN(S(=O)(=O)c2cn(C)c(=O)n(C)c2=O)CC(C)O1 (stereo not given),"inconclusive: 15.8 µM [activator, single point]"
